The list shows a part of the results. The data scatter; read single values as rough.
Columns and labels:
[1] = compound: ClCC(=O)N[C@@H]1CCCc2ccccc12; test: log2 mean competition ratio of IA-DTB cysteine labelling (DMSO/compound) (log2 ratio); higher = stronger cysteine engagement by compound; settings: treatment time: 4 h, cell line lysate: HEK293T
Description: (§1)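 IA-DTB competitive cysteine chemoproteomics in HEK293T RIPA lysate. Lysates were treated with compound 29 or 30 at 50 or 200 µM for 4 h, then IA-DTB (500 µM, 1 h), trypsin-digested, NeutrAvidin-enriched and analysed by diaPASEF. Competition ratio = intensity DMSO / intensity compound (n=4 treated, n=64 DMSO); binding: mean log2 CR ≥ 1 and p ≤ 0.05 plus QC filters. Target is the cysteine site.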

Sequences of proteins named here, by UniProt entry; tags and fusion partners are left off. A change or cut given only in a name is not applied to a line headed by its entry.
UniProt Q5THK1: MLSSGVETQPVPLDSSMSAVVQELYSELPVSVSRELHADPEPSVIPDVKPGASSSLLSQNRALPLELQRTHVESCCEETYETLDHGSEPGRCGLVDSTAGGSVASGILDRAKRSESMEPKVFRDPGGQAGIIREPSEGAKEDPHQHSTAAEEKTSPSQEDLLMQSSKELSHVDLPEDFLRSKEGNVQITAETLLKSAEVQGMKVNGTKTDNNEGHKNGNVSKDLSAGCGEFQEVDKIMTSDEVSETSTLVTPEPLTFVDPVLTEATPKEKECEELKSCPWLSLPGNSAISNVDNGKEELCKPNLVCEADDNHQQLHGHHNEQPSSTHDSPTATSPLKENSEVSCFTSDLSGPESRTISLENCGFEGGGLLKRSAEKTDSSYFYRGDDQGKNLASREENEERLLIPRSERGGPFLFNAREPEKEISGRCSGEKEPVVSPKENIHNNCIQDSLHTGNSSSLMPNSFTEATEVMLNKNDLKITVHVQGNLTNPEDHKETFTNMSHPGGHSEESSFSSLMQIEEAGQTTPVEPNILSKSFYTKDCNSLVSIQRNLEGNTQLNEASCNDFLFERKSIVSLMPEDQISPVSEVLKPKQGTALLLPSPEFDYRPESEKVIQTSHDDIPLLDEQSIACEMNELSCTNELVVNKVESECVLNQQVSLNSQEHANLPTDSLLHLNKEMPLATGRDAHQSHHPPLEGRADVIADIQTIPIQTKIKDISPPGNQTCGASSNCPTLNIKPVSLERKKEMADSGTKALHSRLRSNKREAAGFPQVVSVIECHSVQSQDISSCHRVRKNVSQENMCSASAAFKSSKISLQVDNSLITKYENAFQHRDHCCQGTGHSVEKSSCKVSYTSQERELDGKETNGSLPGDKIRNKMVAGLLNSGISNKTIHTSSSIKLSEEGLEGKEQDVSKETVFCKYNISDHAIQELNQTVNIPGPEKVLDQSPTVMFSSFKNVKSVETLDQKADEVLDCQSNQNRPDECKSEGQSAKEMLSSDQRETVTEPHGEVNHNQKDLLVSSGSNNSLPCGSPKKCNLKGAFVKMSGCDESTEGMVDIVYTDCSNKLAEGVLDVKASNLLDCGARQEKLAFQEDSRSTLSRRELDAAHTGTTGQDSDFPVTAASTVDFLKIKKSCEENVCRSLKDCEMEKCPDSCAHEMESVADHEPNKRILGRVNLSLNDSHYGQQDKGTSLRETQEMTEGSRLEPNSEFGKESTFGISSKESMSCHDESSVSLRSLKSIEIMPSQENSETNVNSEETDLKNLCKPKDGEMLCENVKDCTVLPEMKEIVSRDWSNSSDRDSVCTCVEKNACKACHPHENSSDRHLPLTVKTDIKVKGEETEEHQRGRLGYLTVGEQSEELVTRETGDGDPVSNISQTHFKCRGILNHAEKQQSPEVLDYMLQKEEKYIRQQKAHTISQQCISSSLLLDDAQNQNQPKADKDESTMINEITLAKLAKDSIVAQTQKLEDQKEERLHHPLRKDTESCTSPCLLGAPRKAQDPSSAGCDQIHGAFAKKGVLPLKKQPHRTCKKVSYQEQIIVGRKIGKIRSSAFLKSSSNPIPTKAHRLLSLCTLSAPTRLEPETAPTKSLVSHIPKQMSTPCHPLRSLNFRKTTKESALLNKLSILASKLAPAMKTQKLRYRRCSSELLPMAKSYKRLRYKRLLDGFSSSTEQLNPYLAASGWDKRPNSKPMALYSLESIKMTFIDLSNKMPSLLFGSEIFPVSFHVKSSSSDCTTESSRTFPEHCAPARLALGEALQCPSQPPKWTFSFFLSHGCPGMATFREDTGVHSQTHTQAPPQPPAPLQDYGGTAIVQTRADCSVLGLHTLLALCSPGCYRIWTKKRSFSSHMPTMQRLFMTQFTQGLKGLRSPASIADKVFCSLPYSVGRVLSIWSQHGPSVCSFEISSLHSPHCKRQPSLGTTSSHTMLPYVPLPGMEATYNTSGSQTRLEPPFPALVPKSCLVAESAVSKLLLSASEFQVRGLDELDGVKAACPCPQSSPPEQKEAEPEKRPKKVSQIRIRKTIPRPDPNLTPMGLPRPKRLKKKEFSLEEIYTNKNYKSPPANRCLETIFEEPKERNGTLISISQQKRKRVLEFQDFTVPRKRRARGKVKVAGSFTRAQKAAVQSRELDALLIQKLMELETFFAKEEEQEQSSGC
UniProt Q05397, whole entry, looked up: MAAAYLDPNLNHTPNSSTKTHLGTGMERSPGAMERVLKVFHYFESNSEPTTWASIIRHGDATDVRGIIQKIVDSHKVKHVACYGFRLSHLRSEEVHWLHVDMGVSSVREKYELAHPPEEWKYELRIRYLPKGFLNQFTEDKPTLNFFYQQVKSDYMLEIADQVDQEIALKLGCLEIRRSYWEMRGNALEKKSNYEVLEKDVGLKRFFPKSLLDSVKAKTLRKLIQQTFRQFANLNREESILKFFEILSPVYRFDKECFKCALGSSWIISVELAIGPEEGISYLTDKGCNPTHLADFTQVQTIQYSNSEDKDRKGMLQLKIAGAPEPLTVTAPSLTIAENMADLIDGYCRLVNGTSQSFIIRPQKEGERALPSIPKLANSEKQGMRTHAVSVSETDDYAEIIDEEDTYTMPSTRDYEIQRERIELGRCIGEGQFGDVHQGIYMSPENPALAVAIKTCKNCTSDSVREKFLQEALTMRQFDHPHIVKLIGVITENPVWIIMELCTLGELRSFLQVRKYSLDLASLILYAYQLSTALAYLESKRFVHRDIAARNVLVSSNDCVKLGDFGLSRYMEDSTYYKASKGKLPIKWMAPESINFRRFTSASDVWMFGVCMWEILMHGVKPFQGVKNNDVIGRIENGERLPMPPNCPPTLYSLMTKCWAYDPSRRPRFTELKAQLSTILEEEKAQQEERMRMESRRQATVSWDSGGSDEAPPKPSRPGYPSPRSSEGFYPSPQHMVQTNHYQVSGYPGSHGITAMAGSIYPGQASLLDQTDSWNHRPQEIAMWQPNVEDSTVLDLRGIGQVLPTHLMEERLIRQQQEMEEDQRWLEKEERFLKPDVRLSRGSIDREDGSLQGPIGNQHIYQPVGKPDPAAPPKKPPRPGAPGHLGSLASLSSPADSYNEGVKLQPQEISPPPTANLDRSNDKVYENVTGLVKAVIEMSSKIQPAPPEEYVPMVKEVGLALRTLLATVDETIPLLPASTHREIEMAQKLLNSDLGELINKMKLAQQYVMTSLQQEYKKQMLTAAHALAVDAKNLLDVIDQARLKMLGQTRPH
UniProt P20337: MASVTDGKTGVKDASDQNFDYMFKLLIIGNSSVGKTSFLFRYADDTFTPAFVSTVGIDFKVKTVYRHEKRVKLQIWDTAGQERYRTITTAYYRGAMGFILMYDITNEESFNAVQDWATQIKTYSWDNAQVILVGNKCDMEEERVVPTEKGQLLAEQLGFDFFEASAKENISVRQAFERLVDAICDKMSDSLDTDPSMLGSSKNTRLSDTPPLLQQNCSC
UniProt O00231, whole entry, looked up: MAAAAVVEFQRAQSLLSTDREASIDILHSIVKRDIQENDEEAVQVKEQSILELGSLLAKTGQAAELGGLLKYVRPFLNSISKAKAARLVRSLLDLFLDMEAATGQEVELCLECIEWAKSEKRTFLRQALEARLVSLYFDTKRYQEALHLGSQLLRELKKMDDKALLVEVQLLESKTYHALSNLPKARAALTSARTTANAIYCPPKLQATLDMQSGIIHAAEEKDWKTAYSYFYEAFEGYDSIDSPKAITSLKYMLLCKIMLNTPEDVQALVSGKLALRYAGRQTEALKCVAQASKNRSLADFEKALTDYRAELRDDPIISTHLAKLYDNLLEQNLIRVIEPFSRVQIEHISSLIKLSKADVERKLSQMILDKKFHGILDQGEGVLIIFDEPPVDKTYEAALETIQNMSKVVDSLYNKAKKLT
UniProt Q9Y3T6: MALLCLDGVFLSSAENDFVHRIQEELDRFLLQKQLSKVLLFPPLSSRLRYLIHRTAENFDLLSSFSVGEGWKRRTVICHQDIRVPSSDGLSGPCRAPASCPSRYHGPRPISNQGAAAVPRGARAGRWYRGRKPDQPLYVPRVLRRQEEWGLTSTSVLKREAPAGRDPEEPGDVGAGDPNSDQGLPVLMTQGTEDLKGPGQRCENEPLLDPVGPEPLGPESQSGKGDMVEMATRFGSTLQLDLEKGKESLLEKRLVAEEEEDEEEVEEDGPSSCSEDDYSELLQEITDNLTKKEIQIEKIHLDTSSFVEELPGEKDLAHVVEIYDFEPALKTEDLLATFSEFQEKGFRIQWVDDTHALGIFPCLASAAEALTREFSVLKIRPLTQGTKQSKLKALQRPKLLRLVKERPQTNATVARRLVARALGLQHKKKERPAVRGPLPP
UniProt Q9UNM6: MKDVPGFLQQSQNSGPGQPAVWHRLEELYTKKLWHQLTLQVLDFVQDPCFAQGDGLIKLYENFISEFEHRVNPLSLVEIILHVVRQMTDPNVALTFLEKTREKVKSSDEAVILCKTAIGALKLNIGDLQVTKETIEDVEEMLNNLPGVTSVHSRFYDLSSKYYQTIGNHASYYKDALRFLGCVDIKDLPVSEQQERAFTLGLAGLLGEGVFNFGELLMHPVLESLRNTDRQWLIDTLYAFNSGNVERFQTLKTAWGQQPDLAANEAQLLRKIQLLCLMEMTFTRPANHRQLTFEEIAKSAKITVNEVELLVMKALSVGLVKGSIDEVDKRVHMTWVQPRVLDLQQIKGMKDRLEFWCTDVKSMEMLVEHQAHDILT
UniProt Q99638: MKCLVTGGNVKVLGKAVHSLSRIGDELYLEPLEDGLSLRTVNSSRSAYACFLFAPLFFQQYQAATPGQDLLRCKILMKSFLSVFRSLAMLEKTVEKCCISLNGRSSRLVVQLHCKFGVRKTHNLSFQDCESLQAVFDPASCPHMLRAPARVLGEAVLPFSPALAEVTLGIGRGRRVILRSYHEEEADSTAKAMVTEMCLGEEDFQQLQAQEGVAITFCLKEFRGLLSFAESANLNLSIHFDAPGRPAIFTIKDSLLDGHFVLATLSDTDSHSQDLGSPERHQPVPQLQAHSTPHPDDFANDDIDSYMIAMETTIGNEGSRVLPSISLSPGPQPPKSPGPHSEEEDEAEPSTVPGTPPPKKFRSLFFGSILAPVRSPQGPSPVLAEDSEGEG
UniProt Q96PZ0: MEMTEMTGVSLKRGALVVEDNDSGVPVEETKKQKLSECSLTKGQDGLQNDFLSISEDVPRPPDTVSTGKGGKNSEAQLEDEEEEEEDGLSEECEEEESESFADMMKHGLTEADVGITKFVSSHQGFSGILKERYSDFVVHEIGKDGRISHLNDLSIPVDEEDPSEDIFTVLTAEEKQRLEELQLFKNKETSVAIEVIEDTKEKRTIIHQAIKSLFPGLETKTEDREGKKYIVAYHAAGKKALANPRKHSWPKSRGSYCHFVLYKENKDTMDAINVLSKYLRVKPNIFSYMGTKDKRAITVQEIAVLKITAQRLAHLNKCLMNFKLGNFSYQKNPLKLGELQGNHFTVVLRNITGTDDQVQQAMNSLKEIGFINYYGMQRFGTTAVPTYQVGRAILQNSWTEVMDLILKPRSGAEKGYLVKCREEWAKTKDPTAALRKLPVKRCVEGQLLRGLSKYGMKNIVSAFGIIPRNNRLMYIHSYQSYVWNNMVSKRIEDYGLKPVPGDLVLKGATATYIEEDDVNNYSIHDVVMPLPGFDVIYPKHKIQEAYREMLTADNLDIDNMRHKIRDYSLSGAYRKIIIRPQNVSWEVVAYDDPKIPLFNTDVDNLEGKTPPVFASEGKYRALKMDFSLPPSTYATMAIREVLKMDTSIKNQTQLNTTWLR
UniProt O60216: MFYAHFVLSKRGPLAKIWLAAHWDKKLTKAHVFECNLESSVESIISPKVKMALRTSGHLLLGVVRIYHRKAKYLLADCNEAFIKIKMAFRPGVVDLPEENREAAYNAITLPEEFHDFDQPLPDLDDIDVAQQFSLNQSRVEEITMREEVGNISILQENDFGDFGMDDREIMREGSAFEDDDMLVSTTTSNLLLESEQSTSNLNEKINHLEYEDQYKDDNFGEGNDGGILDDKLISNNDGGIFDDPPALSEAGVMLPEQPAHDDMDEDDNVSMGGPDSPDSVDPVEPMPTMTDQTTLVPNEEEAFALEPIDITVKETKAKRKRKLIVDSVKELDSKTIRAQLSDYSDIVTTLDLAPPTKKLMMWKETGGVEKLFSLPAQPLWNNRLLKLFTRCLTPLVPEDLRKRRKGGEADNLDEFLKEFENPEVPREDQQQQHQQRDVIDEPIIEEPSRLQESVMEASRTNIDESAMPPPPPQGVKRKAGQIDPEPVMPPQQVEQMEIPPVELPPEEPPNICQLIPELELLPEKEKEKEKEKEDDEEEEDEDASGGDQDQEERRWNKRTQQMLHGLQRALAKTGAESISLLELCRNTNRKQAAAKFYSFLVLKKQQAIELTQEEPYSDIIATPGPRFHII

[2] = compound: ClCC(=O)N[C@H]1CCCc2ccccc12; test: as above; settings: treatment time: 4 h, cell line lysate: HEK293T
Description: as §1

Target: PSMG1 C157 (UniProt O95456)
- log2 mean competition ratio ([1]; 50 µM): -0.135
- log2 mean competition ratio ([1]; 200 µM): -0.269
- log2 mean competition ratio ([2]; 50 µM): 0.106
- log2 mean competition ratio ([2]; 200 µM): -0.188

Target: PRR14L C541 (UniProt Q5THK1)
- log2 mean competition ratio ([1]; 50 µM): 0.0117
- log2 mean competition ratio ([1]; 200 µM): -0.0334
- log2 mean competition ratio ([2]; 50 µM): 0.34
- log2 mean competition ratio ([2]; 200 µM): 0.126

Target: PTK2 C173 (UniProt Q05397)
- log2 mean competition ratio ([1]; 50 µM): 0.233
- log2 mean competition ratio ([1]; 200 µM): -0.0466
- log2 mean competition ratio ([2]; 50 µM): -0.372
- log2 mean competition ratio ([2]; 200 µM): -0.124

Target: RAD54L C20 (UniProt Q92698)
- log2 mean competition ratio ([1]; 50 µM): 0.0738
- log2 mean competition ratio ([1]; 200 µM): -0.0615
- log2 mean competition ratio ([2]; 50 µM): 0.278
- log2 mean competition ratio ([2]; 200 µM): -0.223

Target: PSME4 C1100 (UniProt Q14997)
- log2 mean competition ratio ([1]; 50 µM): 0.032
- log2 mean competition ratio ([1]; 200 µM): -0.0666
- log2 mean competition ratio ([2]; 50 µM): -0.232
- log2 mean competition ratio ([2]; 200 µM): 0.0565

Target: PUM2 C169
- log2 mean competition ratio ([1]; 50 µM): -0.135
- log2 mean competition ratio ([1]; 200 µM): 0.0548
- log2 mean competition ratio ([2]; 50 µM): 0.238
- log2 mean competition ratio ([2]; 200 µM): 0.106

Target: PUS1 C260 (UniProt Q9Y606)
- log2 mean competition ratio ([1]; 50 µM): -0.0555
- log2 mean competition ratio ([1]; 200 µM): 0.108
- log2 mean competition ratio ([2]; 50 µM): -0.0313
- log2 mean competition ratio ([2]; 200 µM): 0.187

Target: RAB3B C137 (UniProt P20337)
- log2 mean competition ratio ([1]; 50 µM): -0.142
- log2 mean competition ratio ([1]; 200 µM): 0.0406
- log2 mean competition ratio ([2]; 50 µM): 0.0952
- log2 mean competition ratio ([2]; 200 µM): 0.00244

Target: PSMD11 C289 (UniProt O00231)
- log2 mean competition ratio ([1]; 50 µM): 0.31
- log2 mean competition ratio ([1]; 200 µM): 0.00223
- log2 mean competition ratio ([2]; 50 µM): 0.3
- log2 mean competition ratio ([2]; 200 µM): 0.0204

Target: R3HCC1 C94 (UniProt Q9Y3T6+R3HCC1)
- log2 mean competition ratio ([1]; 50 µM): -0.00928
- log2 mean competition ratio ([1]; 200 µM): 0.227
- log2 mean competition ratio ([2]; 50 µM): -0.104
- log2 mean competition ratio ([2]; 200 µM): 0.264

Target: RABL2B C26
- log2 mean competition ratio ([1]; 50 µM): 0.0502
- log2 mean competition ratio ([1]; 200 µM): 0.11
- log2 mean competition ratio ([2]; 50 µM): -0.123
- log2 mean competition ratio ([2]; 200 µM): 0.128

Target: QSER1 C283
- log2 mean competition ratio ([1]; 50 µM): -0.0318
- log2 mean competition ratio ([1]; 200 µM): 0.0844
- log2 mean competition ratio ([2]; 50 µM): -0.172
- log2 mean competition ratio ([2]; 200 µM): 0.0886

Target: PSMD13 C114 (UniProt Q9UNM6)
- log2 mean competition ratio ([1]; 50 µM): -0.1
- log2 mean competition ratio ([1]; 200 µM): -0.221
- log2 mean competition ratio ([2]; 50 µM): 0.167
- log2 mean competition ratio ([2]; 200 µM): -0.0474

Target: RAD9A C3 (UniProt Q99638)
- log2 mean competition ratio ([1]; 50 µM): -0.0137
- log2 mean competition ratio ([1]; 200 µM): 0.0394
- log2 mean competition ratio ([2]; 50 µM): 0.322
- log2 mean competition ratio ([2]; 200 µM): 0.0472

Target: RAD1 C42 (UniProt O60671)
- log2 mean competition ratio ([1]; 50 µM): 0.0503
- log2 mean competition ratio ([1]; 200 µM): -0.342
- log2 mean competition ratio ([2]; 50 µM): 0.143
- log2 mean competition ratio ([2]; 200 µM): -0.363

Target: PTPN13 C1705 (UniProt Q12923)
- log2 mean competition ratio ([1]; 50 µM): -0.125
- log2 mean competition ratio ([1]; 200 µM): 0.116
- log2 mean competition ratio ([2]; 50 µM): 0.111
- log2 mean competition ratio ([2]; 200 µM): 0.0795

Target: PTCH1 C699
- log2 mean competition ratio ([1]; 50 µM): -0.0288
- log2 mean competition ratio ([1]; 200 µM): -0.243
- log2 mean competition ratio ([2]; 50 µM): -0.571
- log2 mean competition ratio ([2]; 200 µM): -0.0491

Target: PSMD4 C87
- log2 mean competition ratio ([1]; 50 µM): -0.0501
- log2 mean competition ratio ([1]; 200 µM): -0.139
- log2 mean competition ratio ([2]; 50 µM): -0.334
- log2 mean competition ratio ([2]; 200 µM): -0.193

Target: RAC1 C157 (UniProt P63000)
- log2 mean competition ratio ([1]; 50 µM): 0.0996
- log2 mean competition ratio ([1]; 200 µM): -0.0196
- log2 mean competition ratio ([2]; 50 µM): -0.362
- log2 mean competition ratio ([2]; 200 µM): -0.00923

Target: PUS7 C38 (UniProt Q96PZ0)
- log2 mean competition ratio ([1]; 50 µM): -0.135
- log2 mean competition ratio ([1]; 200 µM): -0.0536
- log2 mean competition ratio ([2]; 50 µM): 0.219
- log2 mean competition ratio ([2]; 200 µM): -0.0198

Target: RAD21 C392 (UniProt O60216)
- log2 mean competition ratio ([1]; 50 µM): 0.187
- log2 mean competition ratio ([1]; 200 µM): -0.191
- log2 mean competition ratio ([2]; 50 µM): 0.00659
- log2 mean competition ratio ([2]; 200 µM): -0.0332

Target: PSMD5 C64 (UniProt Q16401)
- log2 mean competition ratio ([1]; 50 µM): 0.0868
- log2 mean competition ratio ([1]; 200 µM): 0.038
- log2 mean competition ratio ([2]; 50 µM): -0.406
- log2 mean competition ratio ([2]; 200 µM): -0.159

Source: the supplement of paper PMC11732987, “Enantioselective OTUD7B fragment discovery through chemoproteomics screening and high-throughput optimisation” (Communications Chemistry, 2025)
